This is one part of the list. The main result of the screen is listed elsewhere. These columns were measured beside it and carry no call. Compounds called inactive in the main read-out are mostly missing here. The note in brackets gives the kind of curve behind each potency; many fits are weak.
Test: qHTS Assay for Lipid Storage Modulators in Drosophila S3 Cells;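 for cell number change: cells counted by Cell Tracker Red CMTPX staining in the red channel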
Conditions: BODIPY lipid droplet fluorescence, 18-24 h; for cell number change: measured here: cell count max response, cells fed with added oleic acid
Method in brief: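 Laser-scanning cytometry quantifies lipid droplet accumulation (500–530 nm total intensity; droplet/cell object ratio) in oleic acid-fed (400 uM added) Drosophila S3 cells treated with a concentration series. 20 uM Triacsin C defined 100% inhibition.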

[1] = measured here: cell number channel AC50, cells fed with added oleic acid
[2] = measured here: lipid fluorescence (Fed channel) AC50, cells fed with added oleic acid

Structure (SMILES) | cell number change | AC50 [1] | AC50 [2]
COc1ccc2cc3c(N)nn(C(=O)C4CCC(C(C)(C)C)CC4)c3nc2c1 (stereo not given) | -82.7% | 18.4 µM [falling, single point] | 18.4 µM [falling, partial curve]
Cc1c(C(=O)N(C)C)c2cc(Cl)ccc2n1O | -19.7% |  | 0.0259 µM [falling, full curve, poor fit]
COC(=O)c1cccc(-n2nnnc2SCC(=O)Nc2cc(C)on2)c1 | -15.8% |  | 
O=C(Nc1cccc(-c2csc(Nc3ccccc3)n2)c1)c1cc([N+](=O)[O-])cc(C(F)(F)F)c1 | -50.6% | 23.1 µM [falling, single point] | 7.31 µM [falling, partial curve]
COc1ccccc1OCC(O)Cn1c(Br)nc2c1c(=O)[nH]c(=O)n2C (stereo not given) | -0.353% |  | 
CCCCCOc1ccc2oc(=O)c3c(c2c1)CCCN3C(=O)CN1CCCC(C(=O)OCC)C1 (stereo not given) | 63% | 4.11 µM [rising, full curve] | 4.61 µM [falling, partial curve]
Cc1ccc(C)c(OCCC(=O)OCC(=O)Nc2ccc(N3CCOCC3)cc2)c1 | 23% |  | 
Cc1cc(C)cc(NC(=O)Cn2nnc(C(=O)NCc3ccco3)c2N)c1 | 6.1% |  | 1.84 µM [rising, partial curve, poor fit]
O=C1c2ccccc2C(=O)N1OCCOCCOCCBr |  | 0.231 µM [falling, full curve] | 
CCOC(=O)N1CCN(C(=O)COC(=O)CSc2ccc([N+](=O)[O-])cc2)CC1 | -20% |  | 
Cc1ccc(Nc2nnc(SCn3nnc4ccccc4c3=O)s2)cc1 |  | 1.46 µM [rising, partial curve] | 
CCOC(=O)C1=C(C)NC(=O)CC1c1cc2c(cc1Br)OCO2 (stereo not given) |  | 2.31 µM [rising, single point] | 4.11 µM [rising, partial curve]
COc1ccc(NC(=O)c2ccccc2NS(=O)(=O)c2ccc(CNC(C)=O)cc2)c(OC)c1 | -10.5% |  | 0.00461 µM [falling, full curve, poor fit]
O=C(Nc1ccc(Oc2ccccc2)nc1)C1CCCCN1Cc1cccc(OCCO)c1 (stereo not given) | -20.9% |  | 14.6 µM [falling, partial curve]
Clc1ccc(-c2nnc(-c3ccc(Br)cc3)c(N3CCSCC3)n2)cc1 | 26.3% |  | 
O=C(Nc1ccc(F)cc1F)NC1CC1 | 2.6% | 0.58 µM [rising, full curve, poor fit] | 
Cc1c(C(=O)NCCSCc2c(F)cccc2Cl)cnn1-c1ccc(Cl)cc1 | 7.99% |  | 0.092 µM [rising, full curve, poor fit]
Cc1cccc(NC(=O)Nc2cc(C)on2)c1 | -19.8% |  | 
COC(=O)c1ccc(C(C(=O)NCc2ccccc2)N(Cc2cccs2)C(=O)c2cnccn2)cc1 (stereo not given) | 61.7% | 1.16 µM [rising, full curve] | 2.31 µM [rising, partial curve]
CC(C)(C)OC(=O)N[C@H](Cc1ccccc1)C(=O)N1CCC(C(=O)O)CC1 | 2.16% |  | 0.13 µM [falling, full curve, poor fit]

Structure (SMILES) | cell number change | AC50 [1] | AC50 [2]
Cc1ccccc1OCCn1ccnc1 | 21.5% |  | 6.51 µM [rising, single point]
COc1ccc2c(c1)c(C(=O)CN1CCOCC1)c(C)n2C | -19.1% |  | 2.59 µM [rising, partial curve, poor fit]
C=CCc1cccc(/C=N/c2ncccc2O)c1O | 9.85% |  | 
O=C(NC1CC2CCCC(C1)N2S(=O)(=O)c1ccccc1)c1ccccc1 (stereo not given) | -23.9% |  | 
CC1Cc2ccccc2N1S(=O)(=O)c1cnc(Cl)c(Br)c1 (stereo not given) | 7.72% |  | 29.1 µM [rising, single point]
CC(/C=C/c1ccc(OCc2ccccc2)cc1)=N\O | 66.7% | 29.1 µM [rising, single point] | 7.31 µM [rising, partial curve, poor fit]
CCN(Cc1ccccc1)C(=O)Cn1c(=O)oc2ccccc21 | 7.58% | 6.51 µM [falling, single point] | 0.00517 µM [falling, full curve, poor fit]
COc1ccccc1N1CCN(C(c2cc3ccc(C)cc3[nH]c2=O)c2nnnn2C2CCCC2)CC1 (stereo not given) | 58.5% | 29.1 µM [rising, single point] | 
O=S(=O)(c1ccccc1)N1N=C(c2cccs2)CC1c1cccc(O)c1 (stereo not given) | -30.6% | 13 µM [falling, partial curve, poor fit] | 
COCCn1c(C)cc(C(=O)COC(=O)/C=C/c2c(C)nn(C3CCS(=O)(=O)C3)c2Cl)c1C (stereo not given) | -50% | 29.1 µM [falling, single point] | 29.1 µM [falling, single point]
CC(C)C(=O)Nc1nc2c(c(=O)[nH]1)CCCC2 | -30% |  | 29.1 µM [falling, single point]
CCOC(=O)c1ccc(NC(=S)N(CCCN2CCCC2)Cc2cccs2)cc1 |  | 3.66 µM [rising, partial curve] | 
Cc1cc(NC(=O)C(C)SCC(=O)N(C)Cc2ccccc2F)no1 (stereo not given) | -8.03% |  | 14.6 µM [rising, partial curve, poor fit]
CN=c1scc(C)n1/N=C/c1cc(Br)c(O)c(OC)c1 | 22% |  | 29.1 µM [rising, single point]
CCN1CCN(S(=O)(=O)c2ccc(Oc3ccccc3OC)cc2)CC1 |  | 2.06 µM [falling, partial curve, poor fit] | 0.00517 µM [falling, full curve, poor fit]
CCCS(=O)(=O)N1CCCC(C(=O)NCCCN(C)c2ccccc2)C1 (stereo not given) | -16.6% |  | 
COc1ccccc1NC(=O)CN1CCC(n2c(C)nc3cc(F)ccc32)CC1 | -8.53% |  | 
COc1ccc(-n2cc(CNCCc3cnc[nH]3)c(-c3cccc(F)c3)n2)cc1 | -39% | 29.1 µM [falling, single point] | 
CC(=O)c1c(C)[n+]([O-])c2ccc3c(non3O)c12 | 30.2% |  | 6.51 µM [rising, partial curve, poor fit]
CCOc1ccc(Cn2ccnc2)cc1[N+](=O)[O-] | 37.4% | 0.731 µM [rising, full curve] | 1.64 µM [rising, partial curve]

Structure (SMILES) | cell number change | AC50 [1] | AC50 [2]
CCCCCCCOC(=O)C[N+](C)(C)CCOC1CC2CCC1(C)C2(C)C (stereo not given) | -64.5% | 18.4 µM [falling, partial curve] | 13 µM [falling, partial curve]
CCOc1ccc2c(c1)s/c(=N\S(=O)(=O)c1ccc(OC)cc1)n2C(F)F | 39.6% | 0.366 µM [rising, partial curve, poor fit] | 3.26 µM [rising, full curve]
Fc1cccc(Cl)c1Cn1ncc2ccccc21 | 4.93% |  | 2.31 µM [rising, partial curve]
CSc1ccc(S(=O)(=O)NCC(=O)OCC(=O)N(C)Cc2ccccc2)cc1[N+](=O)[O-] | -44.7% | 29.1 µM [falling, single point] | 
O=C(O)CN(c1ccccc1F)S(=O)(=O)c1ccccc1 | -18.5% |  | 0.291 µM [falling, full curve, poor fit]
CCOC(=O)c1c(-c2ccccc2)oc2ccc(OC)cc12 | 38.9% | 29.1 µM [rising, single point] | 23.1 µM [rising, single point]
Cc1cccc(C)c1NC(=O)c1sc(Cl)nc1C | 13.4% |  | 3.26 µM [rising, full curve, poor fit]
CCc1nnc(NC(=O)c2nc(S(=O)(=O)Cc3ccccc3)ncc2Cl)s1 | -5.31% | 4.61 µM [falling, single point] | 4.61 µM [falling, full curve]
CCN1C(=O)/C(=C\c2ccc(-c3ccc([N+](=O)[O-])cc3OC)o2)SC1=Nc1cccc(C(=O)O)c1 | -9.04% |  | 
CCOC(=O)c1oc2ccccc2c1COC(=O)CNC(=O)c1ccco1 | -0.901% |  | 23.1 µM [rising, single point]
COc1cccc(-c2cnc(OC(C)(C)C)nc2OC(C)(C)C)c1 | 31.2% | 29.1 µM [rising, single point] | 25.9 µM [falling, single point]
CN1c2ccsc2C(O)=C(C(=S)Nc2ccc(F)c(Cl)c2)S1(=O)=O | 17.2% |  | 6.51 µM [falling, single point]
COCc1cc(=O)[nH]c(Nc2nc3ccc(C)cc3o2)n1 |  | 6.51 µM [rising, single point] | 
COc1ccc(NS(=O)(=O)c2cc(NC(=O)c3ccc(=O)[nH]n3)ccc2C)cc1 | 27.1% |  | 0.00461 µM [falling, full curve, poor fit]
O=C(O)C1CCCCC1C(=O)Nc1ccccn1 (stereo not given) | 0.0445% |  | 5.8 µM [falling, full curve]
O=C(Nc1ccccc1O)c1ccc2c(c1)C(=O)N(c1ccccc1)C2=O | 22.5% |  | 5.17 µM [falling, single point]
C=CCSc1nc2sc3c(c2c(=O)[nH]1)CCC3 | -40.3% | 29.1 µM [falling, single point] | 
CC(C)C1C(c2ccccc2)NC(c2ccccc2)CC1(O)c1ccc(F)cc1 (stereo not given) | -66.7% | 23.1 µM [falling, partial curve, poor fit] | 11.6 µM [falling, partial curve]

16 compounds out of the list, arranged by length of the SMILES, high to low:
Structure (SMILES) | cell number change | AC50 [1] | AC50 [2]
CCN1C(=O)/C(=C\c2ccc(-c3ccc([N+](=O)[O-])cc3OC)o2)SC1=Nc1cccc(C(=O)O)c1 | -9.04% |  | 
CSc1ccc(S(=O)(=O)NCC(=O)OCC(=O)N(C)Cc2ccccc2)cc1[N+](=O)[O-] | -44.7% | 29.1 µM [falling, single point] | 
COc1ccc(NS(=O)(=O)c2cc(NC(=O)c3ccc(=O)[nH]n3)ccc2C)cc1 | 27.1% |  | 0.00461 µM [falling, full curve, poor fit]
CCOc1ccc2c(c1)s/c(=N\S(=O)(=O)c1ccc(OC)cc1)n2C(F)F | 39.6% | 0.366 µM [rising, partial curve, poor fit] | 3.26 µM [rising, full curve]
CC(C)C1C(c2ccccc2)NC(c2ccccc2)CC1(O)c1ccc(F)cc1 (stereo not given) | -66.7% | 23.1 µM [falling, partial curve, poor fit] | 11.6 µM [falling, partial curve]
O=C(Nc1ccccc1O)c1ccc2c(c1)C(=O)N(c1ccccc1)C2=O | 22.5% |  | 5.17 µM [falling, single point]
CCCCCCCOC(=O)C[N+](C)(C)CCOC1CC2CCC1(C)C2(C)C (stereo not given) | -64.5% | 18.4 µM [falling, partial curve] | 13 µM [falling, partial curve]
CCOC(=O)c1oc2ccccc2c1COC(=O)CNC(=O)c1ccco1 | -0.901% |  | 23.1 µM [rising, single point]
COc1cccc(-c2cnc(OC(C)(C)C)nc2OC(C)(C)C)c1 | 31.2% | 29.1 µM [rising, single point] | 25.9 µM [falling, single point]
COCc1cc(=O)[nH]c(Nc2nc3ccc(C)cc3o2)n1 |  | 6.51 µM [rising, single point] | 
O=C(O)CN(c1ccccc1F)S(=O)(=O)c1ccccc1 | -18.5% |  | 0.291 µM [falling, full curve, poor fit]
CCOc1ccc(Cn2ccnc2)cc1[N+](=O)[O-] | 37.4% | 0.731 µM [rising, full curve] | 1.64 µM [rising, partial curve]
C=CCSc1nc2sc3c(c2c(=O)[nH]1)CCC3 | -40.3% | 29.1 µM [falling, single point] | 
Cc1cccc(C)c1NC(=O)c1sc(Cl)nc1C | 13.4% |  | 3.26 µM [rising, full curve, poor fit]
O=C(O)C1CCCCC1C(=O)Nc1ccccn1 (stereo not given) | 0.0445% |  | 5.8 µM [falling, full curve]
Fc1cccc(Cl)c1Cn1ncc2ccccc21 | 4.93% |  | 2.31 µM [rising, partial curve]
